# Primary screen of a compound library

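Assay of Toxoplasma gondii numbers, read through their beta-galactosidase reporter with a colour substrate. Concentration: 10 µM. Higher reads as fewer parasites (inferred from which compounds were picked for retests). Size under these conditions: about 67,000 compounds, about 260 of them at 50% or above in at least one test.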

Results are given as percent effect. The controls that fix the scale are not given in the record; negative values are as filed. This is an unselected part of the compounds tested.

* CCN(CC)S(=O)(=O)NCC1Cc2ccccc2O1 (configuration not stated) : 1.951%
* c1ncn(CC2CCCN2Cc2csc(C3CCCCC3)n2)n1 (configuration not stated) : -4.506%
* O=C(Nc1ncnc2c1CCC2)c1cccc(F)c1 : 7.402%
* COc1ccc(-c2noc(C(=O)NCCN3CCCCC3)n2)cc1OC : 10.88%
* CN1CCN(C(=O)Cn2ccc3c(Cl)cccc32)CC1 : -6.411%
* Cc1ccc2oc(CN3CCn4nc(CCC(=O)O)cc4C3)c(C)c2c1 : 14.6%
* CN(C)CCN1CCOC2(CCN(c3nccs3)CC2)c2ccccc21 : -25.89%
* CCOCCCNC(=O)NCc1c(C)nn(C)c1C : 36.99%
* COc1cccc(-c2nc(C)c(C(=O)N[C@H](CO)CCSC)s2)c1 : 2.51%
* Cc1cc(C2CCCN(C(=O)Cc3csc(C(C)C)n3)C2)n[nH]1 (configuration not stated) : -2.715%
* [H][C@@]12CCN(C(=O)c3cccn3C)[C@@]1([H])CC(=O)N2CC1CCOCC1 : 11.59%
* Cc1[nH]nc2ncc(C(=O)N3CCN(CC(C)C)CC3)cc12 : 5.964%
* Fc1ccc(C2CCCN2Cc2nnnn2C2CC2)cc1 (configuration not stated) : 18.4%
* O=C(O)C(F)(F)F.c1cnc(N2CC[C@@H](OCC3CC3)[C@@H]2Cc2cccnc2)nc1 : -12.1%
* Cc1ccccc1-c1noc(CN2CCn3c(nnc3C3CC3)C2)n1 : -5.338%
* COc1ccccc1CNC(=O)CS(=O)(=O)Cc1ccccc1 : 16.76%
* [H][C@]12CCN(C(=O)CC(C)C)CC[C@@]1([H])S(=O)(=O)N(Cc1cccnc1)C2 : -16.83%
* Cc1nc2n(n1)CC(NCC(=O)NCCC1=CCCCC1)CC2 (configuration not stated) : 17.89%
* CC(C)C1SCC(=O)Nc2c1c(O)nn2C1CCCCC1 (configuration not stated) : 13.87%
* CC(C)c1cc(C2CCN(C(=O)Cn3nc4ccccc4n3)CC2)[nH]n1 : 19.72%
* CCS(=O)(=O)c1ccc2oc([C@H]3CCN(Cc4ccccc4)C3)nc2c1 : 2.157%
* CCc1nc(CSC2CCCN(c3cnn(C)c3)C2=O)cs1 (configuration not stated) : 9.394%
* CCN(CC)Cc1ccc(C(=O)NC2CCc3cc(Br)ccc32)o1 (configuration not stated) : -0.8653%
* COC[C@@H]1CCC[C@]12CN(CCc1ccccc1)CCO2.O=C(O)C(F)(F)F : -5.081%
* N#CCCCOc1cccnc1NC(=O)Cc1ccccc1F : 30.76%
* CCC(CNS(=O)(=O)c1cccc(C(=O)OC)c1)N1CCCC1 (configuration not stated) : -9.304%
* CC(C)c1ncc(C(=O)N(C)c2ccc(Br)cn2)s1 : -2.149%
* c1ccc2c(N3CCCCC3Cn3cncn3)ncnc2c1 (configuration not stated) : -4.295%
* CC(C)c1n[nH]c(C(=O)NC(C)c2ccncc2)c1Br (configuration not stated) : 5.9%
* Fc1cccc(CNc2cncc(-n3cccn3)n2)c1 : -4.556%
* Cc1nn(C)c(C)c1-c1ccc(=O)n(C(C)C(=O)NC2CCCCC2)n1 (configuration not stated) : -17.32%
* CCS(=O)(=O)N1Cc2nccn2CC(Cn2cccn2)C1 (configuration not stated) : 9.033%
* CN(C)c1ccc(C(=O)NCC2(c3ccccc3)CCOCC2)cc1 : -1.975%
* CCN(CC)c1ccc(CNS(=O)(=O)C2CCOCC2)cc1F : -0.1679%
* Cc1ccc(C2(O)CCN(C(=O)c3ccc(S(N)(=O)=O)cc3)CC2)nc1 : 3.369%

The first 3 entries again:

CCN(CC)S(=O)(=O)NCC1Cc2ccccc2O1 (configuration not stated) gave 1.951%.
c1ncn(CC2CCCN2Cc2csc(C3CCCCC3)n2)n1 (configuration not stated) gave -4.506%.
O=C(Nc1ncnc2c1CCC2)c1cccc(F)c1 gave 7.402%.

The values are deposited in ChEMBL (CHEMBL3988442, “University of Dundee, Small-Polar-MMV Screening Library” (2021)).